Measured values as given in publication PMC10535701.
No constants are given. Whether binding was seen depends on the method and setting. In cells and extracts the contact can be indirect. Some entries that bind do so weakly or less than the wild type.

Sequences of proteins named here, by UniProt entry; tags and fusion partners are left off.
UniProt P10242: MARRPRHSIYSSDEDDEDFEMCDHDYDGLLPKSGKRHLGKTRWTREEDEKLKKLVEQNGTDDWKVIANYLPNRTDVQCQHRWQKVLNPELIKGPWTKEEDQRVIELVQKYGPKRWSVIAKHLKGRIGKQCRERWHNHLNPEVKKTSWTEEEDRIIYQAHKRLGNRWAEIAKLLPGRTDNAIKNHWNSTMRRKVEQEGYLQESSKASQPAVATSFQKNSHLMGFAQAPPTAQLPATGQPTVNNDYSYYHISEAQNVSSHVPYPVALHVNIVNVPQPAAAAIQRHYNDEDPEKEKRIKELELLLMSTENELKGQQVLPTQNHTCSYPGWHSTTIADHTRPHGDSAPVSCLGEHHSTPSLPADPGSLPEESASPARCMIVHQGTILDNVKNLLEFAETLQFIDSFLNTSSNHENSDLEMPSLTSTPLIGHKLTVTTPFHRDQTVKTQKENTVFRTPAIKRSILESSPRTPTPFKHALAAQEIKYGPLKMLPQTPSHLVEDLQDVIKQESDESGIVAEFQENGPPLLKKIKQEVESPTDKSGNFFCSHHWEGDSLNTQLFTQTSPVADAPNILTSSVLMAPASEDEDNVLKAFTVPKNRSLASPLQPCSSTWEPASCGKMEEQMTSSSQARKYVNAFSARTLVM

Columns and labels:
[1] = target: MYB, exogenous in HEK293T cells (UniProt P10242); experiment: co-IP; exogenous BATF2 and MYB in HEK293T cells; repeated three times; details in the Supplementary materials and methods
[2] = target: MYB, endogenous in Jurkat T cells (human (endogenous in Jurkat)) (UniProt P10242); experiment: co-IP; endogenous BATF2 and MYB in Jurkat T cells; repeated three times; details in the Supplementary materials and methods

B1: BATF2 (basic leucine zipper ATF-like transcription factor 2), exogenous in HEK293T cells (protein, UniProt Q8N1L9 1-274)
chain: MHLCGGNGLLTQTDPKEQQRQLKKQKNRAAAQRSRQKHTDKADALHQQHESLEKDNLALRKEIQSLQAELAWWSRTLHVHERLCPMDCASCSAPGLLGCWDQAEGLLGPGPQGQHGCREQLELFQTPGSCYPAQPLSPGPQPHDSPSLLQCPLPSLSLGPAVVAEPPVQLSPSPLLFASHTGSSLQGSSSKLSALQPSLTAQTAPPQPLELEHPTRGKLGSSPDNPSSALGLARLQSREHKPALSAATWQGLVVDPSPHPLLAFPLLSSAQVHF
- binding [1]: binds

B2: BATF2 (basic leucine zipper ATF-like transcription factor 2), endogenous in Jurkat T cells (protein, UniProt Q8N1L9 1-274)
chain: MHLCGGNGLLTQTDPKEQQRQLKKQKNRAAAQRSRQKHTDKADALHQQHESLEKDNLALRKEIQSLQAELAWWSRTLHVHERLCPMDCASCSAPGLLGCWDQAEGLLGPGPQGQHGCREQLELFQTPGSCYPAQPLSPGPQPHDSPSLLQCPLPSLSLGPAVVAEPPVQLSPSPLLFASHTGSSLQGSSSKLSALQPSLTAQTAPPQPLELEHPTRGKLGSSPDNPSSALGLARLQSREHKPALSAATWQGLVVDPSPHPLLAFPLLSSAQVHF
- binding [2]: binds
